Test results as given in US20050037987A1, “Methods of identifying kinases and uses thereof” (priority 2003, published 2005).
At least one compound was matched to its structure with a doubt left.

What was measured:
IRS-1 = experiment: Effect of siRNA on IRS-1 degradation after chronic insulin treatment; Western blot with anti-IRS-1 antibodies in transfected HepG2 cells; assay type: cell-based, human; details: Table III, 100 nM siRNA 48 hrs, then insulin 18 hours, versus scramble control siRNA
PKB = experiment: Effect of siRNA on insulin-induced phosphorylation of PKB; Western blot with anti-phospho Ser473 antibodies in transfected HepG2 cells; assay type: cell-based, human; details: Table III, 100 nM siRNA 48 hrs, then insulin 18 hours, versus scramble control siRNA

SMILES: C=CC[C@@H]1/C=C(\C)C[C@H](C)C[C@H](OC)[C@H]2O[C@@](O)(C(=O)C(=O)N3CCCC[C@H]3C(=O)O[C@H](/C(C)=C/[C@@H]3CC[C@@H](O)[C@H](OC)C3)[C@H](C)[C@@H](O)CC1=O)[C@H](C)C[C@@H]2OC [FK506]
- IRS-1 (IRS-1): No effect
- Phospho-PKB (PKB): No effect
